Data: the supplement of paper PMC10626197
Structures can show the parent of a compound that is named as a salt. ± gives the standard deviation of the averaged measurements. Some well-known active drugs show little effect in this data set, so a weak value is uncertain.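 Drug pairs were tested on MCF7 breast cancer cells in a dose grid. On every plate, solvent-only DMSO wells served as the untreated reference, and a doxorubicin series served as the total-kill control. No hit threshold applies to the viability readings.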

System: MCF7
Assay: cell viability relative to DMSO control (raw); higher = more viable cells
Details: exposure time 72 h
Procedure: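 MCF7 cells, 1000 cells/well in 384-well plates, treated with 6x6 dose matrices of drug pairs (1:3 serial dilutions, DMSO as lowest dose) for 72 h at 37 °C. Viability read by CellTiter-Glo luminescence, 3 biological replicates. Normalised viability sets 0% at the highest doxorubicin dose and 100% at the 0,0 µM control per combination.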

N#CC[C@H](C1CCCC1)n1cc(-c2ncnc3[nH]ccc23)cn1 [Ruxolitinib] + CCC(=O)OCC(=O)[C@@]1(OC(=O)CC)[C@@H](C)C[C@H]2[C@@H]3CCC4=CC(=O)C=C[C@]4(C)[C@@]3(F)[C@@H](O)C[C@@]21C [Betamethasone dipropionate]
cell viability [%]
Details	drug 2 concentration 0 µM	drug 2 concentration 0.037037 µM	drug 2 concentration 0.111111 µM	drug 2 concentration 0.333333 µM	drug 2 concentration 1 µM	drug 2 concentration 3 µM
drug 1 concentration 0.37037 µM	108 ± 11	105 ± 2.1	111 ± 6.5	108 ± 14	105 ± 8.9	105 ± 8.8
drug 1 concentration 1.11111 µM	110 ± 7.5	106 ± 2.8	119 ± 2.4	115 ± 6.2	111 ± 6.4	111 ± 9.3
drug 1 concentration 3.33333 µM	118 ± 6.8	118 ± 8.4	114 ± 7.7	113 ± 5.1	110 ± 2.8	115 ± 2.8
drug 1 concentration 10 µM	130 ± 5.8	122 ± 3.1	122 ± 4.6	125.5 ± 1	126 ± 1.5	120 ± 5.6
drug 1 concentration 30 µM	83.3 ± 4.7	82.3 ± 8.6	89.2 ± 12	86.5 ± 8.2	81.6 ± 0.47	73.9 ± 8.4

C#Cc1cccc(Nc2ncnc3cc(OCCOC)c(OCCOC)cc23)c1 [Erlotinib] + CN(C)CCCN1c2ccccc2CCc2ccc(Cl)cc21 [Clomipramine (hydrochloride)]
cell viability [%]
Details	drug 2 concentration 0 µM	drug 2 concentration 0.123457 µM	drug 2 concentration 0.37037 µM	drug 2 concentration 1.11111 µM	drug 2 concentration 3.33333 µM	drug 2 concentration 10 µM
drug 1 concentration 0.123457 µM	105 ± 12	104 ± 14	101 ± 8.9	104 ± 10	98.9 ± 9.4	78.5 ± 6.4
drug 1 concentration 0.37037 µM	120 ± 9	115 ± 12	119 ± 6.4	116 ± 3.5	112 ± 5.1	89.9 ± 6.6
drug 1 concentration 1.11111 µM	102 ± 11	99.5 ± 12	100 ± 12	101 ± 12	101 ± 4.2	79.2 ± 4.5
drug 1 concentration 3.33333 µM	106 ± 5.6	110 ± 8.6	105 ± 7.8	115 ± 10	105 ± 5.2	80.4 ± 6.4
drug 1 concentration 10 µM	85.8 ± 9.9	81.3 ± 7	85.9 ± 16	90.3 ± 16	82.1 ± 16	61 ± 5.7

O=C1c2c(O)ccc(O)c2C(=O)c2c(NCCNCCO)ccc(NCCNCCO)c21 [Mitoxantrone] + CN1CCN(CCCN2c3ccccc3Sc3ccc(C(F)(F)F)cc32)CC1 [Trifluoperazine 2HCl]
cell viability [%]
Details	drug 2 concentration 0 µM	drug 2 concentration 0.185185 µM	drug 2 concentration 0.555556 µM	drug 2 concentration 1.66667 µM	drug 2 concentration 5 µM	drug 2 concentration 15 µM
drug 1 concentration 0.0123457 µM	76.5 ± 2.9	73 ± 3	75.9 ± 2.2	76.9 ± 1.6	62.9 ± 3.7	6.95 ± 2.2
drug 1 concentration 0.037037 µM	69.8 ± 2.5	70.3 ± 7.7	69 ± 0.96	66.5 ± 3.4	64.1 ± 6.9	11.8 ± 2.1
drug 1 concentration 0.111111 µM	64.7 ± 3	65.8 ± 1.8	65.6 ± 3.6	58.4 ± 3.6	61.8 ± 2.2	7.62 ± 0.22
drug 1 concentration 0.333333 µM	51.4 ± 2.1	53.2 ± 1.2	55.5 ± 4.7	46.4 ± 4	37.1 ± 4.3	1.96 ± 0.18
drug 1 concentration 1 µM	40.3 ± 1.9	37.2 ± 3.4	34.9 ± 1.9	34.7 ± 3.9	28.9 ± 0.96	2.7 ± 0.51

CO[C@H]1C(=O)[C@]2(C)[C@@H](OC)C[C@H]3OC[C@@]3(OC(C)=O)[C@H]2[C@H](OC(=O)c2ccccc2)[C@]2(O)C[C@H](OC(=O)[C@H](O)[C@@H](NC(=O)OC(C)(C)C)c3ccccc3)C(C)=C1C2(C)C [Cabazitaxel] + C=C1/C(=C\C=C2/CCC[C@]3(C)[C@@H]([C@H](C)CCCC(C)C)CC[C@@H]23)C[C@@H](O)C[C@@H]1O [Alfacalcidol]
cell viability [%]
Details	drug 2 concentration 0 µM	drug 2 concentration 0.617284 µM	drug 2 concentration 1.85185 µM	drug 2 concentration 5.55556 µM	drug 2 concentration 16.6667 µM	drug 2 concentration 50 µM
drug 1 concentration 0.0184691 µM	74.5 ± 10	71.7 ± 7.7	68.2 ± 13	74.1 ± 11	65.4 ± 9.7	0.682 ± 0.065
drug 1 concentration 0.0554074 µM	80.8 ± 2	76.1 ± 1.4	77.9 ± 3.8	76.1 ± 2	73 ± 4.7	0.861 ± 0.38
drug 1 concentration 0.166222 µM	83.6 ± 3.3	81 ± 8.6	76.9 ± 2.5	74.9 ± 7.3	75.9 ± 5.4	0.372 ± 0.16
drug 1 concentration 0.498667 µM	78.3 ± 3.8	74.8 ± 5	74.9 ± 3.9	72.6 ± 2.1	54.3 ± 0.61	0.534 ± 0.2
drug 1 concentration 1.496 µM	75.3 ± 2.8	67.5 ± 2.3	67.9 ± 1.1	68.6 ± 3.4	56.7 ± 5.6	0.41 ± 0.016

O=C1c2c(O)ccc(O)c2C(=O)c2c(NCCNCCO)ccc(NCCNCCO)c21 [Mitoxantrone] + Cc1c(-c2ccc(O)cc2)n(Cc2ccc(OCCN3CCCCCC3)cc2)c2ccc(O)cc12 [Bazedoxifene (acetate)]
cell viability [%]
Details	drug 2 concentration 0 µM	drug 2 concentration 0.123457 µM	drug 2 concentration 0.37037 µM	drug 2 concentration 1.11111 µM	drug 2 concentration 3.33333 µM	drug 2 concentration 10 µM
drug 1 concentration 0.0123457 µM	69.4 ± 10	68.9 ± 8	66.1 ± 7.2	66.4 ± 9	65.4 ± 12	3.16 ± 0.79
drug 1 concentration 0.037037 µM	62.4 ± 6.3	59.6 ± 5.5	62 ± 6.7	62.4 ± 4.4	54 ± 6.3	4.27 ± 0.32
drug 1 concentration 0.111111 µM	66.7 ± 7.4	57.2 ± 10	60.2 ± 8.9	65.4 ± 8.5	57.3 ± 1.7	4.09 ± 0.94
drug 1 concentration 0.333333 µM	50.1 ± 3.8	45.2 ± 3.1	48.6 ± 4.8	53.6 ± 6.8	25.4 ± 2.2	2.16 ± 0.6
drug 1 concentration 1 µM	39.2 ± 7.3	37.2 ± 6.4	35.9 ± 4.2	34.5 ± 6.2	33.6 ± 9.8	2.04 ± 0.3

C/C(=C\c1csc(C)n1)[C@@H]1C[C@@H]2O[C@]2(C)CCC[C@H](C)[C@H](O)[C@@H](C)C(=O)C(C)(C)[C@@H](O)CC(=O)N1 [ixabepilone] + COc1cc2ncnc(Nc3ccc(F)c(Cl)c3)c2cc1NC(=O)/C=C/CN1CCCCC1 [Dacomitinib]
cell viability [%]
Details	drug 2 concentration 0 µM	drug 2 concentration 0.246914 µM	drug 2 concentration 0.740741 µM	drug 2 concentration 2.22222 µM	drug 2 concentration 6.66667 µM	drug 2 concentration 20 µM
drug 1 concentration 0.00185185 µM	106 ± 5.3	98.5 ± 4.6	98.7 ± 5.2	87.5 ± 5.1	28.1 ± 0.92	0.692 ± 0.19
drug 1 concentration 0.00555556 µM	108 ± 10	103 ± 1.6	104 ± 3.9	87.5 ± 4	46.8 ± 8.5	0.502 ± 0.079
drug 1 concentration 0.0166667 µM	101 ± 9.1	102 ± 4.2	95.8 ± 6.1	90.4 ± 4.5	34 ± 5.2	0.97 ± 0.39
drug 1 concentration 0.05 µM	119 ± 7.7	110 ± 6.2	115 ± 4.4	100 ± 6.5	28.9 ± 4.5	0.722 ± 0.5
drug 1 concentration 0.15 µM	126 ± 12	122 ± 8.2	121 ± 2.6	96.6 ± 12	26.8 ± 1.4	0.806 ± 0.12

CCCS(=O)(=O)Nc1ccc(F)c(C(=O)c2c[nH]c3ncc(-c4ccc(Cl)cc4)cc23)c1F [Vemurafenib] + N#CC1(c2ccc(NC(=O)c3cccnc3NCc3ccncc3)cc2)CCCC1 [Apatinib]
cell viability [%]
Details	drug 2 concentration 0 µM	drug 2 concentration 0.0617284 µM	drug 2 concentration 0.185185 µM	drug 2 concentration 0.555556 µM	drug 2 concentration 1.66667 µM	drug 2 concentration 5 µM
drug 1 concentration 0.154321 µM	106 ± 6.7	105 ± 5	111 ± 10	109 ± 1.9	103 ± 6.5	96.8 ± 1.8
drug 1 concentration 0.462963 µM	119 ± 3.9	122 ± 7.3	115 ± 14	119 ± 3.8	114 ± 10	95.6 ± 4.8
drug 1 concentration 1.38889 µM	92.9 ± 2.7	114 ± 2.4	121 ± 4.7	111 ± 8.2	109 ± 2.5	92.2 ± 1.4
drug 1 concentration 4.16667 µM	117 ± 6.7	117 ± 2.6	116 ± 6.8	116 ± 0.81	108 ± 13	97 ± 1.9
drug 1 concentration 12.5 µM	97.9 ± 5.3	97.9 ± 4	101 ± 14	92.6 ± 8.8	83.2 ± 11	66.6 ± 2.1

CNC(=O)c1ccccc1Sc1ccc2c(/C=C/c3ccccn3)n[nH]c2c1 [Axitinib] + CC(=O)[C@H]1CC[C@H]2[C@@H]3CCC4=CC(=O)CC[C@]4(C)[C@H]3CC[C@]12C [Progesterone]
cell viability [%]
Details	drug 2 concentration 0 µM	drug 2 concentration 0.0493827 µM	drug 2 concentration 0.148148 µM	drug 2 concentration 0.444444 µM	drug 2 concentration 1.33333 µM	drug 2 concentration 4 µM
drug 1 concentration 0.0555556 µM	94.2 ± 14	87.1 ± 9.7	90.2 ± 20	80.8 ± 20	77.3 ± 13	76.6 ± 15
drug 1 concentration 0.166667 µM	95.6 ± 7.3	96.2 ± 12	94.1 ± 17	81.5 ± 12	80.5 ± 21	74.3 ± 11
drug 1 concentration 0.5 µM	85.9 ± 12	71.7 ± 9.2	84 ± 18	80.7 ± 14	78.8 ± 12	71.5 ± 16
drug 1 concentration 1.5 µM	80.9 ± 12	79.3 ± 19	78.8 ± 24	86.5 ± 23	77.4 ± 24	70.9 ± 16
drug 1 concentration 4.5 µM	70 ± 4.5	70.1 ± 6.9	67.6 ± 3.4	71.1 ± 15	60.9 ± 19	54.9 ± 16

C[C@@H](Oc1cc(-c2cnn(C3CCNCC3)c2)cnc1N)c1c(Cl)ccc(F)c1Cl [Crizotinib] + C=C1/C(=C\C=C2/CCC[C@]3(C)[C@@H]([C@H](C)CCCC(C)C)CC[C@@H]23)C[C@@H](O)C[C@@H]1O [Alfacalcidol]
cell viability [%]
Details	drug 2 concentration 0 µM	drug 2 concentration 0.617284 µM	drug 2 concentration 1.85185 µM	drug 2 concentration 5.55556 µM	drug 2 concentration 16.6667 µM	drug 2 concentration 50 µM
drug 1 concentration 0.0987654 µM	87.1 ± 8.4	80.6 ± 5.3	81.1 ± 5.8	78.1 ± 5.8	64.1 ± 2.5	0.741 ± 0.088
drug 1 concentration 0.296296 µM	89.9 ± 6.8	79 ± 10	79.1 ± 13	75.8 ± 6.8	59 ± 5.6	0.631 ± 0.2
drug 1 concentration 0.888889 µM	81 ± 4.3	76.4 ± 9.3	71.4 ± 5.3	70 ± 7.4	47.9 ± 5.7	0.297 ± 0.074
drug 1 concentration 2.66667 µM	45.6 ± 7.6	41.5 ± 6.2	40.9 ± 5.1	32.3 ± 3.5	19 ± 2.3	0.273 ± 0.08
drug 1 concentration 8 µM	8.5 ± 1.2	5.72 ± 0.87	9.24 ± 1.6	2.84 ± 0.47	4.94 ± 0.32	0.295 ± 0.043

CC(=O)O[C@H]1C(=O)[C@@]2(C)[C@H]([C@H](OC(=O)c3ccccc3)[C@]3(O)C[C@H](OC(=O)[C@H](O)[C@@H](NC(=O)c4ccccc4)c4ccccc4)C(C)=C1C3(C)C)[C@]1(OC(C)=O)CO[C@@H]1C[C@@H]2O [Paclitaxel] + CCCNC(=O)c1cn2ncnc(Nc3cc(C(=O)NC4CC4)ccc3C)c2c1C [BMS-582949 (hydrochloride)]
cell viability [%]
Details	drug 2 concentration 0 µM	drug 2 concentration 0.37037 µM	drug 2 concentration 1.11111 µM	drug 2 concentration 3.33333 µM	drug 2 concentration 10 µM	drug 2 concentration 30 µM
drug 1 concentration 0.00617284 µM	85.2 ± 1.2	81.5 ± 5.3	85.9 ± 9.9	76.3 ± 4.1	69.1 ± 3.9	62.9 ± 4.4
drug 1 concentration 0.0185185 µM	90.8 ± 8.2	83.3 ± 4.8	91.7 ± 1.5	90.7 ± 7.4	79.4 ± 6.8	72.2 ± 8
drug 1 concentration 0.0555556 µM	103 ± 3.2	95.2 ± 8.3	97.1 ± 1.8	101 ± 2.8	92.5 ± 3.8	87.5 ± 2.5
drug 1 concentration 0.166667 µM	87.8 ± 1.8	81.6 ± 2.9	94.5 ± 5.4	94.2 ± 3	83 ± 4.3	65 ± 7.3
drug 1 concentration 0.5 µM	107 ± 8.4	101 ± 9.1	101 ± 4.9	98.9 ± 6.9	91.2 ± 4	82.7 ± 7.4
